Data: PubChem BioAssay AID504537 (National Center for Advancing Translational Sciences (NCATS), 2011)
The inconclusive results got no clear call from the source; some entries with a clear call stand among them for comparison. Potencies of inconclusive entries are doubtful fits and often do not repeat. Activity calls are given as the source filed them. How the calls were made is not given here.

Chains of the proteins cited; added tags and fusions are not shown.
UniProt Q03164, whole entry, looked up: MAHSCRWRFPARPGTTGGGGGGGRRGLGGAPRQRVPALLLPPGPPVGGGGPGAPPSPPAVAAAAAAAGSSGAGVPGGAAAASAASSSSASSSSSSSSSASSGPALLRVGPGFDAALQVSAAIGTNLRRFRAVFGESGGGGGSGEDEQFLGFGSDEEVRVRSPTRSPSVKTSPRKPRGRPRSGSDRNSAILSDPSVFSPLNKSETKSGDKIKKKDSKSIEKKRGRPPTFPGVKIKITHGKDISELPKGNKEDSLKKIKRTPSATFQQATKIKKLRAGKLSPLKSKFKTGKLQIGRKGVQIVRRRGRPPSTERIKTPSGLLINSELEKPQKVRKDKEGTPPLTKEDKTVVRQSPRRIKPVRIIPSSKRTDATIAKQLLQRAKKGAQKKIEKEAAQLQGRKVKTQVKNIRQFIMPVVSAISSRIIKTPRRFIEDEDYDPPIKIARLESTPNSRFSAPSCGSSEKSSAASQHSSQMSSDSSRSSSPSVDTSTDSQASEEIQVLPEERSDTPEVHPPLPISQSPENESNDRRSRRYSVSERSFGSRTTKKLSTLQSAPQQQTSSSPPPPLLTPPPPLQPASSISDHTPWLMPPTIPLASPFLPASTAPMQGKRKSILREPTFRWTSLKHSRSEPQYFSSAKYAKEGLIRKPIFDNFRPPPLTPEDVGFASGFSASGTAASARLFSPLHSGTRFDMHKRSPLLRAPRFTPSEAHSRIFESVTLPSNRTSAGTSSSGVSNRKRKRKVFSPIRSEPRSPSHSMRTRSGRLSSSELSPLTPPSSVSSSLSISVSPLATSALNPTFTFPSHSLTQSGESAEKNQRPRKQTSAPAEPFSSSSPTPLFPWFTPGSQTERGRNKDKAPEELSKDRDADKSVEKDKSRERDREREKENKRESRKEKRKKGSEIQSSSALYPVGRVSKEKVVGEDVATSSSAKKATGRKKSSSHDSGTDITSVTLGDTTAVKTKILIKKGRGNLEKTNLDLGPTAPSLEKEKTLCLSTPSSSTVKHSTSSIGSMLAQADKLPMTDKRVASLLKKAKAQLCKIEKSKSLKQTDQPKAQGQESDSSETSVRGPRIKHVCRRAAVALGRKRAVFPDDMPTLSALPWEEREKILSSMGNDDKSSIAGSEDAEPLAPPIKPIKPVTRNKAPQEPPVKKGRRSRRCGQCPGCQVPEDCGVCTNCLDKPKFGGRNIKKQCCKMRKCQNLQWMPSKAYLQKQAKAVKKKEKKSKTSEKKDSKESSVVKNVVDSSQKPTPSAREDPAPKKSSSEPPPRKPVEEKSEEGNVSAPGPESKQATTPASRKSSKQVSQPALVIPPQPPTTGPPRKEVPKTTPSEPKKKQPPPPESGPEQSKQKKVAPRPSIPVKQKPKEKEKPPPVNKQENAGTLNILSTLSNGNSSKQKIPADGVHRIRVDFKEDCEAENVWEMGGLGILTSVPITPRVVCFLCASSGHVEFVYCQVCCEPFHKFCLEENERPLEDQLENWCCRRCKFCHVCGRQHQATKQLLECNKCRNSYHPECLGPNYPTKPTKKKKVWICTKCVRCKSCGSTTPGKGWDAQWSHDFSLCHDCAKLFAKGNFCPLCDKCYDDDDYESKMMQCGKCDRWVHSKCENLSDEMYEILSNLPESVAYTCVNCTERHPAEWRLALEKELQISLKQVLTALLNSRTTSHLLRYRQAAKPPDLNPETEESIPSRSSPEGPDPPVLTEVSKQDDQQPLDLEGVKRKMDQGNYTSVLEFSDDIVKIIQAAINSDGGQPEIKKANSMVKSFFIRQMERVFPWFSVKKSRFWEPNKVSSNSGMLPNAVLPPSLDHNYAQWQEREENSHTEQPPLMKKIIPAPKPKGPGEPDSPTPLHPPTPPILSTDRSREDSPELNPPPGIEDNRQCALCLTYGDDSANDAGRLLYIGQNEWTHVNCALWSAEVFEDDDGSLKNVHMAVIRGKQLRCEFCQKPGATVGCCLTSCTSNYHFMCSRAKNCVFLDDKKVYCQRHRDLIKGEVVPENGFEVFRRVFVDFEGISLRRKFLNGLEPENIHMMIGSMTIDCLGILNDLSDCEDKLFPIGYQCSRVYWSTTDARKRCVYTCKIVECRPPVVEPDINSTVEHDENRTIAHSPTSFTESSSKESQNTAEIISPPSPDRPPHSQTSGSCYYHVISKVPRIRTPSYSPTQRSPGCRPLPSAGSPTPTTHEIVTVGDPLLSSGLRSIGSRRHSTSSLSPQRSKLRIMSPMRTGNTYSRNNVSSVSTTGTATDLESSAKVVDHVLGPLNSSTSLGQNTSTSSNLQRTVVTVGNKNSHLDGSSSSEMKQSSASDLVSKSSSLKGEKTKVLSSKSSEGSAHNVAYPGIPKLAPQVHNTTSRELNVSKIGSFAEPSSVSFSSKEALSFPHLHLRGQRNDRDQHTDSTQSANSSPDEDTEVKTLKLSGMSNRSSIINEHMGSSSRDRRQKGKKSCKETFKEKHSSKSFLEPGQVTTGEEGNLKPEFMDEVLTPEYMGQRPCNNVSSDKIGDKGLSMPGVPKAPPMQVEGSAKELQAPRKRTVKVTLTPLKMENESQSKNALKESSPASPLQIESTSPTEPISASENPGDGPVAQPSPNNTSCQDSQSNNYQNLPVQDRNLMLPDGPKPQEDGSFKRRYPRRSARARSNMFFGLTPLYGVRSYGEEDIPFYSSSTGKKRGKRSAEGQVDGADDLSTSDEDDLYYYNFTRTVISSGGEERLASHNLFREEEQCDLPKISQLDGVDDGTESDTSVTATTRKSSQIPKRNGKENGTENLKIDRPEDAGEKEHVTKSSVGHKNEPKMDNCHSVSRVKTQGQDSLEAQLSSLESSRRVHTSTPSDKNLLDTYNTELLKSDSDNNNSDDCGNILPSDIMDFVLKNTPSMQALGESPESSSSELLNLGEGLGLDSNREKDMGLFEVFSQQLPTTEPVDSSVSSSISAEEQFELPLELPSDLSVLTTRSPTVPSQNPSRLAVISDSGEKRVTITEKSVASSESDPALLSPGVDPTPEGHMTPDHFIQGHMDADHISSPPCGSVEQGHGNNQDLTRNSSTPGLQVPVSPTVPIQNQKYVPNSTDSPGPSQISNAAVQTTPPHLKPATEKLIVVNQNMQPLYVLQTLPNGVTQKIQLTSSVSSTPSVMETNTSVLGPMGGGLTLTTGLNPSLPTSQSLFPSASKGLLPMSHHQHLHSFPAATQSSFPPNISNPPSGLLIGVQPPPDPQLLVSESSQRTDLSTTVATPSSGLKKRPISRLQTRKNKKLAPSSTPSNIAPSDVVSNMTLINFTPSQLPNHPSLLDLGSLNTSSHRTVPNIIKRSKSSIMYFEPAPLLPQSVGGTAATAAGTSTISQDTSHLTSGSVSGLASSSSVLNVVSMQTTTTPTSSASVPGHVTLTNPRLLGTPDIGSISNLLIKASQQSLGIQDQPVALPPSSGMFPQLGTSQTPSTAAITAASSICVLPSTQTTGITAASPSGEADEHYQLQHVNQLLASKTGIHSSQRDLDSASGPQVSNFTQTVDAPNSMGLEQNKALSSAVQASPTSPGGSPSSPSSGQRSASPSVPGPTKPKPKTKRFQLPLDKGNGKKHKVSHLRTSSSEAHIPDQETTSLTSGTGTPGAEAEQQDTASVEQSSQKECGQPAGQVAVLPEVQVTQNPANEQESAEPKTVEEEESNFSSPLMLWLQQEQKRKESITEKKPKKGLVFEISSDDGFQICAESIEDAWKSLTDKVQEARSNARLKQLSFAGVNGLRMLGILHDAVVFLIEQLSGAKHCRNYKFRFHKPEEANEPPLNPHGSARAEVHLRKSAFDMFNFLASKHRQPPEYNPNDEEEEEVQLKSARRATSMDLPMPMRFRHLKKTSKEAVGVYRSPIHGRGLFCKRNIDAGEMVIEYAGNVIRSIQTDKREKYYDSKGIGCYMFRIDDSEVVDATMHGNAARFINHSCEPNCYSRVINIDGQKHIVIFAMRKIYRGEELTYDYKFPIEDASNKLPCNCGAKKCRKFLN

target: Histone-lysine N-methyltransferase 2A (Homo sapiens) (UniProt Q03164); test: Inhibitor SAR for Compounds Targeting the Menin-MLL Interaction in MLL Related Leukemias: Competition With Fluorescein Labeled MLL-derived Peptide; details: Menin-MLL fluorescein peptide fluorescence polarization competition
Text: qHTS Assay for Inhibitors Targeting the Menin-MLL Interaction in MLL Related Leukemias NIH Chemical Genomics Center [NCGC] NIH Molecular Libraries Probe Centers Network [MLPCN] MLPCN Grant: MH084875-01A1 Assay Submitter (PI): Jolanta Grembecka, Tomasz Cierpicki, University of Virginia Translocations of the MLL (Mixed Lineage Leukemia) gene are frequently found in human leukemias affecting both children and adults. Fusion of MLL to one of more than 60 genes results in generation of oncogenic proteins upregulating Hox genes, which are vital to blood cell development. Patients harboring fusion of the MLL gene suffer from aggressive leukemias and respond poorly to available therapies. All of the oncogenic fusion proteins have a preserved N-terminal fragment of MLL that has been identified to interact with menin. It has been recently discovered that association with menin is critical to the leukemogenic activity of the MLL fusion oncoproteins. Selective targeting of the menin-MLL interaction could provide an attractive therapeutic approach to develop novel drugs for MLL-related leukemias. Small molecules blocking the menin-MLL interaction should reverse the oncogenic potential of MLL fusion proteins. We have developed and optimized a fluorescence polarization-based assay for the identification of Menin-MLL inhibitors. The assay was run employing two different MLL-derived peptides. The present assay uses a 12 amino acid peptide labeled with fluorescein at its N-terminus. This peptide consists of the menin high affinity binding motif from MLL and is potently bound by menin. Another peptide with a mutated sequence, labeled with Texas Red, was used in parallel as a less stringent screen for inhibitors. The present assay was run to characterize initial structure activity relationships.
The Menin protein, the MLL-wild type (w.t.) derived peptide (N-terminal 12 amino acids), the MLL-derived peptide labeled with Texas Red and the MLL-w.t. peptide labeled with Fluorescein were kindly supplied by laboratory of Dr. Jolanta Grembecka, University of Virginia. All protein and peptide solutions were stored in single use aliquots at -80C. The Eu3+ Cyrptate-conjugated mouse monoclonal antibody anti-6 Histidine (Eu3+-AB) and the Streptavidin-XL665 conjugate (XL665) were purchased from Cisbio International (Bedford, MA). All antibody and XL665 conjugate solution stocks were stored in single use aliquots at -20C. The Buffer components for all assays were purchased from Sigma-Aldrich (St. Louis, MO) and Invitrogen (Carlsbad, CA). FP Assay Reagents: 1. FP reaction buffer: 50 mM Tris-HCl pH 7.5, 50 mM NaCl, 1mM DTT. Before use, 0.05% BSA is added. 2. Menin protein, MLL-w.t. labeled with fluorescein, MLL-mutant peptide labeled with texas red. Stored in singe use aliquots at -80C. 3. MLL-w.t. unlabeled peptide as positive control: 10 uM final in FP buffer. FP Assay Procedure: 1. Prepare Menin at 200 nM, MLL-w.t.-fluorescein at 25 nM, and MLL-mutant-texas red at 50 nM mixture in FP buffer. 2. Prepare Menin at 200 nM, MLL-w.t.-fluorescein at 25 nM, MLL-mutant-texas red at 50 nM, and 10 uM MLL-w.t. unlabeled mixture in FP buffer. 3. Prepare MLL-w.t.-fluorescein at 25 nM and MLL-mutant-texas red at 50 nM mixture in FP buffer. 3. Dispense 4 ul per well of reagent in step 1 in columns 2, 4 - 48 in a black 1536 well plate, dispense 4 ul per well of reagents from steps 2 and 3 in columns 1 and 3 respectively. Incubate plate at ambient for 15 minutes. 4. Transfer 23 nl per well of compound to plate and incubate at ambient for 1 hr. 5. Read fluorescence polarization for each label using the PerkinElmer Envision. Envision protocol for fluorescein: FITC FP Dual Enh Mirror, Excitation filter 480, Emission filter (1) P-pol 535, Emission filter (2) S-pol 535 Envision protocol for texas red: FP Dual Enh Mirror, Excitation filter 555, Emission filter (1) P-pol 632, Emission filter (2) S-pol 632

| SMILES | Potency | outcome |
| --- | --- | --- |
| COc1ccccc1C(=O)Nc1ccnn1C1CCN(Cc2ccccc2)CC1 | inconclusive: 182 µM | – |
| COc1ccccc1C(=O)Nc1ccnn1C1CCN(CC2CCOCC2)CC1 | inconclusive: 208 µM | – |
| COc1ccccc1C(=O)Nc1ccnn1C1CCN(CC2CCCCC2)CC1 | active: 42 µM | – |
| Cc1ccc(OCCCN2CCC(=C(c3ccccc3)c3ccccc3)CC2)cc1 | – | inactive; no saturation, 25% inh at 2mm |
| COc1ccccc1C(=O)Nc1ccnn1C1CCN(CCC(C)(C)C)CC1 | – | inconclusive |
| COc1ccc(C(O)(c2ccccc2)C2CCN(CCCOc3ccc(C#N)cc3)CC2)cc1 (configuration not stated) | inconclusive: 1000 µM | – |
| N#Cc1ccc(COCCCN2CCC(C(O)(c3ccccc3)c3ccccc3)CC2)cc1 | inconclusive: 247 µM | – |
